US10851372B2, “Exosome packaging of nucleic acids” (University of Ottawa, priority 2015, dated 2020)
Some results were stated once for a whole list of compounds, not compound by compound.

Columns and labels:
MEF cells = assay: Exosomal enrichment of miRNA expressed from transfected pre-miR-451 structural mimic plasmids (RT-qPCR); type: cell-based, mouse; conditions: for Increase in miRNA in exosomes caused by pre-miR-451 backbone: MEF cells transfected with plasmids, FIG. 4
Experimental: (C) The ratio of endogenous miRNAs (let-7a, miR-106, miR-155) was measured in exosomes and exosome-producing cells (MEF, mouse embryonic fibroblasts) by RT-qPCR. y-axis is log 10. miR-451 is not endogenously expressed in these cells.
MEF cells were transfected with pre-miR-451 expressing plasmids (“technology”) containing miR-199, miR-155 or miR-106, and exosomes were purified and RT-qPCR was performed on exosomes and cells.
Plasmids expressing pre-miR-451, or pre-miR-451 structural mimics including the sequences of other miRNA, were transfected into the two cell types. Expressing miR-106 or miR-155 in the pre-miR-451 structural mimic caused them to be enriched up to 39-fold in exosomes produced by either MEF or breast cancer cells (see FIG. 3B,D). […] In MEF cells, endogenous miR-451 was undetectable in either cells or exosomes (see FIG. 3C).
Cells were transfected with plasmids using Lipofectamine 2000 according to the manufacturer's instructions. After four hours cells were washed in PBS and incubated with DMEM containing 10% FBS depleted of exosomes by ultracentrifugation according to Thery et al. (2006). After 24 h media was harvested and exosomes were purified by differential ultracentrifugation. RNA was purified from exosomes and exosome-producing cells using Trizol according to the manufacturer's instructions.
Exosomes were enriched by differential centrifugation as previously described (Thery, 2006, Curr Protoc Cell Biol, Chapter 3, Unit 3 22). Briefly, MEF or MDA-MB-231 cells were cultured in media containing FBS depleted of exosomes by centrifugation at 100 000 g for 16 h (Thery, 2006, Curr Protoc Cell Biol, Chapter 3, Unit 3 22). To purify exosomes supernatant from cell cultures was centrifuged at 400 g (7 min), 2000 g (10 min) and 10 000 g (30 min, SW32 rotor). At each step the supernatant was recovered. After centrifugation at 100 000 g (1 h 10 min, SW32 rotor) the supernatant was removed and the pellet was resuspended. The pellet was washed in PBS by a final centrifugation at 100 000 g (20 min, TLA100.3 rotor). […]

[1] = system: MEF or breast cancer cells; assay: as above; type: cell-based; conditions: exosomes produced by either MEF or breast cancer cells, FIG. 3B,D

B1: miR-106 in the pre-miR-451 structural mimic: pre-miR-451 structural mimic comprising the miR-106 targeting sequence, plasmid-expressed, SEQ ID NO: 7 (nucleic acid)
chain: CUUGGGAAUGGCAAGGAAAAGUGCUUACAGUGCAGGUAUGCACUGUAAGCACUUUCUCUUGCUAUACCCAGA
Enrichment in exosomes of miRNA expressed from the pre-miR-451 structural mimic (MEF cells; MEF cells (no endogenous miR-451)): up to 20 fold
Increase in miRNA in exosomes caused by pre-miR-451 backbone (MEF cells): 100-1000 fold
Enrichment in exosomes of miRNA expressed in the pre-miR-451 structural mimic [1]: up to 39 fold

B2: miR-199 in the pre-miR-451 structural mimic: pre-miR-451 structural mimic comprising the miR-199 targeting sequence, plasmid-expressed, SEQ ID NO: 8 (nucleic acid)
chain: CUUGGGAAUGGCAAGGACAGUAGUCUGCACAUUGGUUAAUGUGCAGACUACUGUCUCUUGCUAUACCCAGA
Increase in miRNA in exosomes caused by pre-miR-451 backbone (MEF cells): 100-1000 fold
